Results are given in words; binding and its absence hold for the method and conditions named. Some results given as binding are weak or reduced against the parent protein; the word gives no strength.
Target: recombinant His-tagged insect-cell expressed CCR5, detergent-solubilised (UniProt P51681)
Test: SPR; only the binder purified

Chains of the proteins cited; added tags and fusions are not shown.
UniProt P51681: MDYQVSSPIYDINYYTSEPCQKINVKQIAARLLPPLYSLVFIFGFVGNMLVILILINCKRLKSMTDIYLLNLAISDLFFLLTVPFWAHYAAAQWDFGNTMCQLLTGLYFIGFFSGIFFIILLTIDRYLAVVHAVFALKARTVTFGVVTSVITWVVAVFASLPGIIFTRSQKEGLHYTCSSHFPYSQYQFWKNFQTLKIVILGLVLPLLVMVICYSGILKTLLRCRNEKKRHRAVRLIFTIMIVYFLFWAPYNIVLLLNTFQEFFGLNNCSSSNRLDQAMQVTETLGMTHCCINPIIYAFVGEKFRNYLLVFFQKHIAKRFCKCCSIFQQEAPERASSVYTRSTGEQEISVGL
UniProt P43490: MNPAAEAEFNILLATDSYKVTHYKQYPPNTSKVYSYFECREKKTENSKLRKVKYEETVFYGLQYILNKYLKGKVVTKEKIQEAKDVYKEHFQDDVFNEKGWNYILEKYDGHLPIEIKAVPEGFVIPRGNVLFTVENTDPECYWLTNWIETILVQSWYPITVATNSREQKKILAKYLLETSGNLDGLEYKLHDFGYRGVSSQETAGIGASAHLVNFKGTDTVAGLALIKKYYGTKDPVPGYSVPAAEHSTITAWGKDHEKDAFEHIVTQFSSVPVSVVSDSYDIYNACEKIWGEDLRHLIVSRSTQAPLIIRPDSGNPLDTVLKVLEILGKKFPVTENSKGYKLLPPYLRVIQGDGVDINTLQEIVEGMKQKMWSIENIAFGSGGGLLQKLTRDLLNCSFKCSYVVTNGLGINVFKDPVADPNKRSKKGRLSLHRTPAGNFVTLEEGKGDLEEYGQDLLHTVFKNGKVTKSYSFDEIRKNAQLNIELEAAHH

“visfatin (recombinant) (from UniProt P43490 1-491)” was tested. Which binding did it give?
The binding was “binds”.

Source: article PMC3320877
